For experiment [1], the system named is SARS-CoV-2 -1 PRF reporter mCherry-FSE-GFP(-1). Kind of experiment: mCherry (red) intensity as percent of control; higher = higher upstream reporter expression. To be noted: 10 µM; 24 h; HEK293T.
For experiment [2] the test system is unchanged. Kind of experiment: percent effect, decrease of GFP/mCherry ratio (-1 PRF reporter) relative to controls; higher = stronger frameshift inhibition. The following applies: 10 µM; 24 h; HEK293T.

Consider ten compounds from the supplement of paper PMC8256030.

Molecules are shown by their SMILES. The list shows a part of the results. Single values are uncertain here, since repeats match poorly.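 HEK293T cells were given each compound shortly before transfection with a reporter in which red mCherry is followed by the SARS-CoV-2 frameshift element and then GFP in the −1 frame, so GFP appears only after frameshifting.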

Turning to `Cc1ncc2c(c1O)COC2c1ccc(Cl)cc1` (stereo not given) [cicletanine], the mCherry in experiment [1] came to 129%. For the same compound, the percent effect in experiment [2] is -6.63%.

`CCC[C@@H]1C[C@@H](C(=O)N[C@@H]([C@H]2O[C@H](SC)[C@H](O)[C@@H](O)[C@H]2O)[C@@H](C)O)N(C)C1` displayed a mCherry in experiment [1] of 94.6%. The percent effect in experiment [2] is -2.22%.

Turning to `CC(=O)NS(=O)(=O)c1ccc(NC(=O)c2ccccc2C(=O)O)cc1`, the mCherry in experiment [1] was 117%. Further, the percent effect in experiment [2] came out at 2.42%.

In experiment [1], `CCC[C@@H]1C[C@@H](C(=O)N[C@@H]([C@H]2O[C@H](SC)[C@H](O)[C@@H](O)[C@H]2O)[C@H](C)Cl)N(C)C1` [clindamycin] gave a mCherry of 61.9%. In addition, in experiment [2], the percent effect was -2.41%.

For `CCCN[C@H]1CCc2nc(N)sc2C1` [Pramipexole], the mCherry in experiment [1] was determined as 78.5%. For the same compound, the percent effect in experiment [2] is -5.2%.

In experiment [1], `C[C@@H]1NC(=O)[C@@H](N)CNC(=O)[C@H](C2CCNC(=N)N2)NC(=O)/C(=C/NC(N)=O)NC(=O)[C@H](CNC(=O)CC(N)CCCN)NC1=O.N=C1NCCC([C@@H]2NC(=O)/C(=C/NC(N)=O)NC(=O)[C@H](CNC(=O)CC(N)CCCN)NC(=O)[C@H](CO)NC(=O)[C@@H](N)CNC2=O)N1` (stereo not given in full) came in with a mCherry of 73.6%. The percent effect in experiment [2] is -4.17%.

Take `CC(=O)N[C@@H](CCC(N)=O)C(=O)O`: in experiment [1], the mCherry is 113%. Also, the percent effect in experiment [2] turned out to be 1.73%.

As to `CN(CCCN1c2ccccc2CCc2ccccc21)CC(=O)c1ccc(Cl)cc1` [lofepramine], the mCherry in experiment [1] amounted to 116%. Moreover, the percent effect in experiment [2] was -4.85%.

In turn, `CCCCCCCCCCCCCCCC(=O)OC/C=C(C)/C=C/C=C(C)/C=C/C1=C(C)CCCC1(C)C` returned a mCherry in experiment [1] of 105%. Further, the percent effect in experiment [2] came out at 0.614%.

Consider `CC(C)[N+](C)(CCOC(=O)C1c2ccccc2Oc2ccccc21)C(C)C` [propantheline bromide], for which, in experiment [1], the mCherry was determined as 116%. The percent effect in experiment [2] is -6.46%.
